Data on 1 substance can be found in paper PMC8698616.

Assay [1] concerns the target T1, LEA29 (Arabidopsis thaliana (Col-0)) (UniProt Q9LW12).
T1 sequence: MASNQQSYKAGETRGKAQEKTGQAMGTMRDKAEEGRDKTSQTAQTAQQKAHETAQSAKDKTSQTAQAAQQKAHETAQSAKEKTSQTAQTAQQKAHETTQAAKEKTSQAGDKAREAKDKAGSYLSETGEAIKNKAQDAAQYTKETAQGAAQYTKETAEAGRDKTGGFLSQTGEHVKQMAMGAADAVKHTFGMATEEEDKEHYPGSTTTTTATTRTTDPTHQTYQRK
The assay is described as follows: split reporter; 2in1 ratiometric BiFC (rBiFC, vector pBiFCt-2in1-CC) in N. benthamiana leaves, 4 d after Agrobacterium infiltration with p19; confocal microscopy; relative YFP/RFP fluorescence ratio with cut-off above 80% (n = 15-25); LEA gene at the attR1-R4 site alone as negative control.

The target of assay [2] is T2, LEA7 (Arabidopsis thaliana (Col-0)) (UniProt Q96270).
T2 sequence: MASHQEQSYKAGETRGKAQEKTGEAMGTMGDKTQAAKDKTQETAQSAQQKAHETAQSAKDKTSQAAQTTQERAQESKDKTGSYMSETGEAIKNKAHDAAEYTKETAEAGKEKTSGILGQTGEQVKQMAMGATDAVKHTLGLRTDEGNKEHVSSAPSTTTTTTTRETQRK
The assay is described as above.

No constants are given. Whether binding was seen depends on the method and setting. Binding seen in cells or lysates may run through a third protein.

With LEA28 (Arabidopsis thaliana (Col-0)), the binding entry in assay [1] and in assay [2] was “no binding” in each case.
